Experimental data from US7083940B2, “Pregnancy-associated plasma protein-A2 (PAPP-A2)” (Como Biotech ApS, priority 2000, dated 2006).

Tested on: IGFBP-5
Test: Cleavage site determination in IGFBP-5 (Edman degradation of digest with purified PAPP-A2)
Format: biochemical, human
Details: purified rIGFBP-5 digested with purified PAPP-A2; sequence analysis
Text: For cleavage site determination, purified rIGFBP-5 (FIG. 6, lane 7) was digested with purified PAPP-A2 and analyzed by SDS-PAGE (FIG. 6, lane 8). […] The two bands both represent intact C-terminal cleavage fragments, because they also contain the C-terminal c-myc tag (FIG. 6, lane 9); they are likely to be differently glycosylated, in accordance with the heterogeneity of purified rIGFBP-5 (FIG. 6, lane 7). Both bands contained a second sequence at lower level (45%), L(1)GXFVH (SEQ ID NO:24), corresponding to the N-terminal sequence of IGFBP-5. The absence of Ser, expected in the third cycle, was taken as evidence for carbohydrate substitution of Ser-3. O-linked glycan on the N-terminal cleavage fragment is likely to cause it to smear around the two distinct, C-terminal fragments.

PAPP-A2: recombinant pregnancy-associated plasma protein-A2, SEQ ID NO:2, metzincin metalloproteinase expressed in 293T cells
Cleavage site in IGFBP-5: between Ser-142 and Lys-143; also recorded: between Ser-143 and Lys-144

“Also recorded” adds a separate entry of the source.
